These are yes or no findings as the source states them, for the method shown. Some results given as binding are weak or reduced against the parent protein; the word gives no strength.
Target: T1, GABPα (UniProt Q06546)
T1 sequence: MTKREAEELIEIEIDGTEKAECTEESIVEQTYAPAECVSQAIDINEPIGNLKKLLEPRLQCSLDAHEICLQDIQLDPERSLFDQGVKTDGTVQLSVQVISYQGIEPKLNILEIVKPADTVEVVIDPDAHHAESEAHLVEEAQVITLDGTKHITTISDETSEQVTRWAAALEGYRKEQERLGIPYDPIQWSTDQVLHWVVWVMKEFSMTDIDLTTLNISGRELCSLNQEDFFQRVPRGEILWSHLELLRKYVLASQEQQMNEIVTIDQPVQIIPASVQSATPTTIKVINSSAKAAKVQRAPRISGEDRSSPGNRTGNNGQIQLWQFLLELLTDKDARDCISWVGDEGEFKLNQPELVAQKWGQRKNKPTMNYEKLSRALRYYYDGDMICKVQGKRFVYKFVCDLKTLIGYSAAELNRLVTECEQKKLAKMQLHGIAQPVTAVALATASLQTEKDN
Assay: native gel or EMSA; in vitro translated GABPα, β and γ mixed with the 32P-labelled −51 ETS DNA probe; the protein complexes are seen on the DNA; binding buffer 2 mM HEPES-NaOH pH 7.9, 2% glycerol, 0.01 mM EDTA, 0.25 mM DTT, 5 mM KCl, 0.1 mg/ml BSA, poly dI-dC; 40 min at 4°C; 4% native polyacrylamide gel, 0.5× TBE; supershift with anti-GABP antibodies

Protein sequences, listed by entry. Tags and fused reporters are not part of them.
UniProt Q06547: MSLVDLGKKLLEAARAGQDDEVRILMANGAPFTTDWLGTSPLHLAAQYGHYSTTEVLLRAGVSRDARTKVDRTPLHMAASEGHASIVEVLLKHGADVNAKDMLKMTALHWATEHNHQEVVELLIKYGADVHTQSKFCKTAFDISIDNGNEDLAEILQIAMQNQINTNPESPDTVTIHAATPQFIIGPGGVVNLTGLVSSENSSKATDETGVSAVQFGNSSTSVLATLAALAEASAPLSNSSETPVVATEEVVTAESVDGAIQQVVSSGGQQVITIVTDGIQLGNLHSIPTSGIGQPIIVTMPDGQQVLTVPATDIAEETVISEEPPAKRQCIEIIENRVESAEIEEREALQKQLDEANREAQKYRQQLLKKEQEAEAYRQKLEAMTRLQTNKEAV

binding: binds
Substance: GABPβ (from UniProt Q06547 1-395)

From PMC3171469, “Multiple ETS Family Proteins Regulate PF4 Gene Expression by Binding to the Same ETS Binding Site”
